Measured values as given in PubChem BioAssay AID1439 (NMMLSC, 2008).
Hit rate of the full screen: of about 220,000 compounds, about 770 (0.35%) were called active. Inconclusive means that the source gave no clear call. Such entries were picked first, then a sample of the others. Rule as the data show it: active = binding response below about 49% or above about 150%; inconclusive = no clear call, values can overlap the other calls; inactive = in between.

The chains behind the UniProt entries cited, without tags or fusion partners.
UniProt P09471, whole entry, looked up: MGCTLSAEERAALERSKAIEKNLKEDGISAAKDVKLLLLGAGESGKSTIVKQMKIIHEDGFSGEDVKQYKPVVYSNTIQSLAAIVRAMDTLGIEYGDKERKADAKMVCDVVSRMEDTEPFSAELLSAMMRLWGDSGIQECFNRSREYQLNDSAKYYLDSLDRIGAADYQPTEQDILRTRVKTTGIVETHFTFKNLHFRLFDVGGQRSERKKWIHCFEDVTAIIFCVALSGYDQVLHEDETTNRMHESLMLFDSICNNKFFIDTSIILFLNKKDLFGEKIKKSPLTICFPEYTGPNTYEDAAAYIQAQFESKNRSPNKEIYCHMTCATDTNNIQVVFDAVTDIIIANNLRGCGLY

target: Guanine nucleotide-binding protein G(o) subunit alpha (Homo sapiens) (UniProt P09471); test: RGS7-Galphao binding modulators, primary screen, biochemical, multiplexed bead flow cytometry (AID 1439); settings: at 10 µM, actives lie on both sides;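 also: fluorescent Galphao held in activated GDP-AlF4 state binding bead-coupled RGS7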

Row | SMILES | binding response (% of control)
1 | Cc1cccc(N(CC(=O)Nc2cccnc2)S(C)(=O)=O)c1 | inconclusive: 126%
2 | CCn1c(C)nc2cc(C(=O)N3N=C(CCOC)CC3(O)C(F)(F)F)ccc21 (stereo unspecified) | inconclusive: 96.1%
3 | Cn1c(N)c(C(=O)COC(=O)COc2ccccc2C#N)c(=O)n(C)c1=O | inconclusive: 94%
4 | CCOC(=O)/C(=N\Nc1cccc(C(F)(F)F)c1)N1CCOCC1 | inconclusive: 103%
5 | CCOC(=O)C(=CNc1ccc(Oc2cccnc2)nc1)C(=O)OCC | inconclusive: -118%
6 | NC(=S)N/N=C1\CC(n2nnnc2-c2ccccc2)C2COC1O2 (stereo unspecified) | inconclusive: 102%
7 | O=C1c2ccccc2C(=O)N1CCc1nc2ccccc2c(=O)n1CCCn1ccnc1 | inactive: 104%
8 | CC(C)(C)c1ccc(N2C(=O)CC(C/C=C/c3ccccc3)C2=O)cc1 (stereo unspecified) | inconclusive: 118%
9 | O=c1c2ccccc2ncn1CCOc1ccccc1[N+](=O)[O-] | inconclusive: 79.6%
10 | CC(=O)c1ccc(OCC(O)CN2C(C)CCCC2C)cc1 (stereo unspecified) | inactive: 100%
11 | NS(=O)(=O)c1ccc(CNC(=O)c2ccccn2)cc1 | inconclusive: 432%
12 | CCOC(=O)CSc1nnc(CNC(=O)c2ccc(S(=O)(=O)N3CCOCC3)cc2)n1C | inconclusive: 104%
13 | O=C(Cn1cnc2cc([N+](=O)[O-])ccc2c1=O)NC1CCS(=O)(=O)C1 (stereo unspecified) | inconclusive: 104%
14 | C/C=C\C(=O)Nc1cccc(C2=NOC3(C2)C[C@@H](C(N)=O)N(C(=O)C2(C)CC2)C3)c1 (stereo partly specified) | inconclusive: 87.7%
15 | Cc1ccccc1C(=O)c1c[nH]c(C(=O)NCCc2ccccn2)c1 | inconclusive: 129%
16 | CC(=O)C(=Cc1cn(-c2ccccc2)nc1-c1ccccc1)C(C)=O | inconclusive: 93.4%
17 | CCOC(=O)c1c(C)n(C)c2ccc(OC)c(NC(=O)CN3CCC(C(=O)OCC)CC3)c12 | inconclusive: 87.7%
18 | CCOC(=O)N1CCC(N2C(=O)c3ccccc3C2Nc2ccc(S(=O)(=O)N3CCCCC3)cc2)CC1 (stereo unspecified) | inactive: 107%
19 | O=C(C1CCCN(Cc2nc(-c3cccs3)no2)C1)N1CCOCC1 (stereo unspecified) | inactive: 99.3%
20 | Cn1nc(C(F)(F)F)c(-c2ccc(F)cc2)c1NC(=O)c1cccnc1 | inconclusive: 94.9%
21 | CC(C)C[C@H](NC(=O)CCCn1nnc2ccccc2c1=O)C(=O)O | inconclusive: 68.3%
22 | O=C(Nc1ccc2c(c1)OCCO2)c1ccoc1 | inconclusive: 249%
23 | Cc1cccc(CN2CCN(CC(C)C)C(CCO)C2)n1 (stereo unspecified) | inconclusive: 98.2%

Row | SMILES | binding response (% of control)
24 | Cc1[nH]n(-c2ccccc2)c(=O)c1C=Nc1ccc(S(=O)(=O)N=C(N)N)cc1 | inconclusive: 137%
25 | CC1CCc2c(sc(NC(=O)CCCn3cnc([N+](=O)[O-])n3)c2C(N)=O)C1 (stereo unspecified) | inconclusive: 99%
26 | Cc1c(C(=O)N(Cc2ccccc2)C(C)C)cnn1-c1ccccc1 | inconclusive: 201%
27 | COc1cc(C(=O)O)nc2ccc([N+](=O)[O-])cc12 | inactive: 97.8%
28 | Cc1sc2ncnc(NCc3ccccc3)c2c1C | inactive: 99.8%
29 | O=C(NCCCn1ccnc1)c1cc(-c2cccnc2)nc2ccc(Br)cc12 | inconclusive: 110%
30 | Cc1cccc(N2CCN(C(c3ccncc3)c3nnnn3C(C)(C)C)CC2)c1C (stereo unspecified) | inconclusive: 90.9%
31 | Cc1c(NC(=O)c2ncn[nH]2)cccc1-c1nc2ccccc2s1 | inactive: 103%
32 | CC(C(=O)N1CCN=C1c1ccccc1)N1C(=O)c2ccccc2C1=O (stereo unspecified) | inconclusive: 49%
33 | O=C(Nc1cccc2ccccc12)N1N=CCC1c1ccccc1 (stereo unspecified) | inconclusive: 87%
34 | COc1ccc(CN2CCN(CCc3ccccc3)C(CCO)C2)cc1Cn1cncn1 (stereo unspecified) | inactive: 107%
35 | N/C(=N\NC(=O)c1cccc(F)c1)c1cc2ccccc2oc1=O | inconclusive: 97.4%
36 | O=C(CSc1nnnn1-c1ccccc1)c1ccc(O)cc1O | inconclusive: 96%
37 | CCOC(=O)/C=C/C(=O)Nc1ccccc1C(=O)NC1CCCCC1 | inactive: 94.4%
38 | O=C(Nc1nnc(CCN2CCCCC2)s1)c1ccccc1Cl | inactive: 101%
39 | Cc1ccc(Sc2cc(C)nc(-c3ccccn3)n2)cc1 | inconclusive: 101%
40 | Cc1nn(Cc2cccc(C(N)=O)c2)c(C)c1Br | inconclusive: 93.1%
41 | CCn1c(COc2c(C)cccc2C)nnc1SCc1nc2ccccc2c(=O)[nH]1 | inconclusive: 81%
42 | O=C(Cc1ccccc1)c1ccc2c(c1)OCCO2 | inconclusive: 109%
43 | COc1cccc(OC)c1C(=O)NC(=S)NNC(=O)[C@H]1C[C@@H]1c1ccccc1 | inconclusive: 73%
44 | Cc1ccc(S(=O)(=O)Nc2ccc(NC(=O)c3cccs3)cc2)cc1 | inconclusive: 84%
45 | Cc1ccc(C(=O)NNC(=O)c2ccc(C)cc2)cc1 | inactive: 109%
46 | O=S(=O)(c1ccc(Cl)cc1)N1CCN=C1SCc1ccc(Cl)c(Cl)c1 | inactive: 109%

Among those listed so far, 2 have a tert-butyl group:
Row | SMILES | binding response (% of control)
8 | CC(C)(C)c1ccc(N2C(=O)CC(C/C=C/c3ccccc3)C2=O)cc1 (stereo unspecified) | inconclusive: 118%
30 | Cc1cccc(N2CCN(C(c3ccncc3)c3nnnn3C(C)(C)C)CC2)c1C (stereo unspecified) | inconclusive: 90.9%

Carrying on:

Row | SMILES | binding response (% of control)
47 | Cc1ccc2[nH]c(=O)c(CN(CCc3ccccc3)C(c3nnnn3Cc3ccco3)C(C)C)cc2c1 (stereo unspecified) | inconclusive: 108%
48 | COC(=O)c1cn(NC(=O)Cn2nc([N+](=O)[O-])c(Cl)c2C)c(=O)c2ccccc12 | inconclusive: 97.9%
49 | CC(C)Cc1cc(C(=O)Nc2cccc(O)c2)no1 | inconclusive: 83.2%
50 | COc1ccc([N+](=O)[O-])cc1NC(=O)C(C)OC(=O)c1ccccn1 (stereo unspecified) | inconclusive: 100%
51 | Cc1cc(C)c2ccc(=O)n(CC(=O)N/N=C/c3ccccc3Cl)c2n1 | inconclusive: 134%
52 | COc1ccc(C(=O)O)cc1S(=O)(=O)Nc1ccc(C)cc1 | inconclusive: 90.6%
53 | NCc1c(O)ccc2ccccc12 | inconclusive: 125%
54 | Nc1ccc2c(c1)C(=O)C(=O)c1ccccc1-2 | inactive: 91.5%
55 | CC1CC(C)CN(C(=O)CSc2nc(N)cc(=O)[nH]2)C1 (stereo unspecified) | inactive: 103%
56 | O=C(/C=C/c1ccco1)N(Cc1ccccc1)C1CCS(=O)(=O)C1 (stereo unspecified) | inconclusive: 104%
57 | O=S(=O)(Nc1nc2ccccc2nc1NCC1CCCO1)c1cc(Cl)ccc1Cl (stereo unspecified) | inconclusive: 138%
58 | Cc1cc(SCC(=O)Nc2ccc(O)cc2)n2nc(C)c(-c3ccccc3)c2n1 | inconclusive: 104%
59 | C/C=C\C=C\C(=O)N1CC2(CC(c3cccc(NC(=O)COc4ccc(Cl)cc4)c3)=NO2)C[C@H]1C(N)=O (stereo partly specified) | inconclusive: 71.1%
60 | Oc1ccc[n+](CCCCC[n+]2cccc(O)c2)c1 | inconclusive: 188%
61 | CC(C)c1cc(-c2cc(C(=O)NCc3ccccc3)on2)nc(NCC2CC2)n1 | inconclusive: 101%
62 | NC1=NC[C@H](c2ccccc2)N1CCCCC1CCCCC1 | inconclusive: 116%
63 | COc1ccc(CCNC(=O)CSc2nc(C)nc3sccc23)cc1OC | inconclusive: 102%
64 | CC1=C(C(=O)OC(C)C)C(c2cccc([N+](=O)[O-])c2)n2c(cc(=O)[nH]c2=S)N1 (stereo unspecified) | inactive: 97.5%
65 | COCCNC(=O)c1ccc(C)cc1C | inconclusive: 94.1%
66 | Cn1c(C(=O)NCc2ccccc2)cc2oc3ccccc3c21 | inactive: 116%
67 | O=C(CCC(=O)Nc1ccc(Br)cc1)N/N=C/c1cc([N+](=O)[O-])ccc1O | inconclusive: 87.5%
68 | CN1CCN(c2ncc3c(n2)CC(c2ccccc2F)CC3=O)CC1 (stereo unspecified) | inconclusive: 103%
69 | Cc1c(NC(=O)NC2CCCCC2)cccc1[N+](=O)[O-] | inconclusive: 86.1%

Row | SMILES | binding response (% of control)
70 | Cc1cc(C(C)(C)C)ccc1NC(=O)CC(C)(C)CC(=O)O | inconclusive: 77.1%
71 | O=C(CN1C(=O)NC2NC(=O)NC21)N/N=C/c1ccc(F)cc1 (stereo unspecified) | inactive: 96.3%
72 | COc1ccc(C2N=C(N)N=C(N)N2c2ccccc2OC)cc1OC (stereo unspecified) | inactive: 105%
73 | CC(C)(C)c1ccc(NC(=O)N2CCCN(c3ccc([N+](=O)[O-])cn3)CC2)cc1 | inconclusive: 88.9%
74 | Cc1c(CCCN)c2ccccc2n1Cc1ccccc1 | inactive: 102%
75 | CCOC(=O)N=Nc1c(O)n(C)c2ccccc12 | active: 186% [activator]
76 | CC(C)c1ccc(N2C=Nc3ccc(C(C)C)cc3C2)cc1 | inconclusive: 115%
77 | COc1ccc(OC)c(NC(=O)NNC(=O)CCCOc2ccc(Cl)cc2C)c1 | inactive: 97.8%
78 | Cc1cnc(C(=O)Oc2c(C)ccc(C)c2C)cn1 | inactive: 97.2%
79 | O=C(NCCN1C(=O)S/C(=C\c2cccnc2)C1=O)c1ccc(S(=O)(=O)N2CCCC2)cc1 | inconclusive: 102%
80 | CC1=NN(c2nc3ccccc3s2)C(O)(C(F)(F)F)C1 (stereo unspecified) | inconclusive: 99.3%
81 | CCN1CCN(C(=S)c2ccc([N+](=O)[O-])cc2)CC1 | inactive: 115%
82 | CC(=O)Nc1cccc(NC(=O)CS(=O)(=O)c2cn(CC(=O)N3CCOCC3)c3ccccc23)c1 | inconclusive: 103%
83 | NNC(=O)CCN(Cc1ccco1)S(=O)(=O)c1ccc(Cl)cc1 | inconclusive: 124%
84 | O=C(Cc1ccccc1)N/N=C/c1cc(Br)cc(Cl)c1O | inconclusive: 47.5%
85 | CCC(C(=O)c1ccccc1)P(=O)(NN)c1ccccc1 (stereo unspecified) | inconclusive: 90.8%
86 | Oc1c(N=Nc2ccccc2)sc2ccccc12 | inconclusive: 99%
87 | Cc1ccc2nc(NCC(N)=O)nc(-c3ccccc3)c2c1 | inconclusive: 35.9%
88 | O=C(NC(=O)N1CCN(c2ccc([N+](=O)[O-])cn2)CC1)c1ccccc1F | inconclusive: 83.1%
89 | C=CCOC(=O)C1=C[C@H](c2ccccc2)[C@@H](CCCO)[C@H](OCC)O1 | inactive: 102%
90 | Cc1ccc(OCCOCCN(C)C)c(Cl)c1 | inactive: 103%
91 | CCc1c(C)nc2c(-c3ccccc3)c(C)nn2c1Nc1ccc(NC(C)=O)cc1 | inconclusive: 268%

Structures listed so far containing a CF3 group (4):
Row | SMILES | binding response (% of control)
2 | CCn1c(C)nc2cc(C(=O)N3N=C(CCOC)CC3(O)C(F)(F)F)ccc21 (stereo unspecified) | inconclusive: 96.1%
4 | CCOC(=O)/C(=N\Nc1cccc(C(F)(F)F)c1)N1CCOCC1 | inconclusive: 103%
20 | Cn1nc(C(F)(F)F)c(-c2ccc(F)cc2)c1NC(=O)c1cccnc1 | inconclusive: 94.9%
80 | CC1=NN(c2nc3ccccc3s2)C(O)(C(F)(F)F)C1 (stereo unspecified) | inconclusive: 99.3%
